Measurements: the supplement of paper PMC9578143, “Small-Molecule Ebselen Binds to YTHDF Proteins Interfering with the Recognition of N^6-Methyladenosine-Modified RNAs” (ACS Pharmacology & Translational Science, 2022)
This is one part of the list. Baselines shift from plate to plate; read single values as rough.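 Hits were defined as a z-score below −3.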 Non-standard residues stand in square brackets, D forms with d. Residues, ends and D or L forms follow the SMILES beside them. *: point of attachment. NHCH2CH2OH = OCCN*; For = O=C*

biological target: T1, YTHDF1 YTH domain (aa 365-554) (UniProt Q9BYJ9); assay: tryptophan fluorescence intensity z-score (mean); higher = higher fluorescence, less quenching (negative = binding / quenching); conditions: 10 µM
T1 sequence (whole entry): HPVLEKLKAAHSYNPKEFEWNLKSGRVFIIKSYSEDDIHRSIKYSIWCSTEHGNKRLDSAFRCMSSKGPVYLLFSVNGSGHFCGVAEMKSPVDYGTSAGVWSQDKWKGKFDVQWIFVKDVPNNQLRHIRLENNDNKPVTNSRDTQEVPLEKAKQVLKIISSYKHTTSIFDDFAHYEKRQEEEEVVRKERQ

Tryptophan fluorescence intensity z-score, inactive:
CN(C)c1nc(N(C)C)nc(N(C)C)n1 (plate: M 7-8) 0.0106, CC(=O)O[C@]1(C(C)=O)CC[C@H]2[C@@H]3C[C@H](C)C4=CC(=O)CC[C@]4(C)[C@H]3CC[C@@]21C (plate: M 5-6) -0.00801, CC(C)NCC(O)c1ccc2ccccc2c1 (stereo not drawn) (plate: M 21-22) 0.95, O.O.O.O.O.O.O.O.O.O.O.O.O.O.O.O.O=S(=O)([O][Al])OC[C@H]1O[C@@](COS(=O)(=O)[O][Al])(O[C@H]2O[C@H](COS(=O)(=O)[O][Al])[C@@H](OS(=O)(=O)[O][Al])[C@H](OS(=O)(=O)[O][Al])[C@H]2OS(=O)(=O)[O][Al])[C@@H](OS(=O)(=O)[O][Al])[C@@H]1OS(=O)(=O)[O][Al] (plate: M 13-14) 0.55, c1ccc([C@H]2CN3CCSC3=N2)cc1 (plate: M 7-8) -0.0686, CCC(=O)O[C@]1(C(=O)CCl)[C@@H](C)C[C@H]2[C@@H]3CCC4=CC(=O)C=C[C@]4(C)[C@@]3(F)[C@@H](O)C[C@@]21C (plate: M 9-10) -0.439, O=C1C[C@@H](c2ccc(O)cc2)Oc2cc(O)cc(O)c21 (plate: M 17-18) -0.216, O=C(/C=C/C(=O)Oc1ccccc1C(=O)O)Oc1ccccc1C(=O)O (plate: M 23-24) 0.685, NC(=O)c1ccc([N+](=O)[O-])cc1Cl (plate: M 7-8) 0.485, O=C1OCCN1/N=C/c1ccc([N+](=O)[O-])o1 (plate: M 3-4) -0.285, CC(C)C[C@@H](NC(=O)[C@H](C)NC(=O)CNC(=O)[C@@H](NC=O)C(C)C)C(=O)N[C@@H](C)C(=O)N[C@@H](C(=O)N[C@H](C(=O)N[C@H](C(=O)N[C@@H](Cc1c[nH]c2ccccc12)C(=O)N[C@H](CC(C)C)C(=O)N[C@@H](Cc1c[nH]c2ccccc12)C(=O)N[C@H](CC(C)C)C(=O)N[C@@H](Cc1c[nH]c2ccccc12)C(=O)N[C@H](CC(C)C)C(=O)N[C@@H](Cc1c[nH]c2ccccc12)C(=O)NCCO)C(C)C)C(C)C)C(C)C (plate: M 3-4) (For-VGA[dL]A[dV]VVW[dL]W[dL]W[dL]W-NHCH2CH2OH) 1.49, O=c1c(O)c(-c2ccc(O)cc2O)oc2cc(O)cc(O)c12 (plate: M 19-20) -0.0341, O=c1c(O)c(-c2ccccc2)oc2cc(O)ccc12 (plate: M 19-20) 0.0793
